The other results are listed elsewhere or left out. The data scatter; read single values as rough.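 Tm was set to 64 °C where no melting was found, and many curves are irregular.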
Compound: CCc1cnccc1C(=O)Nc1cc2c(cc1F)NC(=O)CC2
Assay: melting temperature shift (DMSO Tm minus MBE1-treated Tm) in cellular thermal proteome profiling; higher = less thermal stabilization by MBE1 (negative = stabilized by MBE1)
Settings: A375

By UniProt entry, the sequences of proteins in these tests, tags left out. Where a name states a change or a piece, a line headed by the entry shows the natural chain unless it says otherwise.
UniProt O43242, whole entry: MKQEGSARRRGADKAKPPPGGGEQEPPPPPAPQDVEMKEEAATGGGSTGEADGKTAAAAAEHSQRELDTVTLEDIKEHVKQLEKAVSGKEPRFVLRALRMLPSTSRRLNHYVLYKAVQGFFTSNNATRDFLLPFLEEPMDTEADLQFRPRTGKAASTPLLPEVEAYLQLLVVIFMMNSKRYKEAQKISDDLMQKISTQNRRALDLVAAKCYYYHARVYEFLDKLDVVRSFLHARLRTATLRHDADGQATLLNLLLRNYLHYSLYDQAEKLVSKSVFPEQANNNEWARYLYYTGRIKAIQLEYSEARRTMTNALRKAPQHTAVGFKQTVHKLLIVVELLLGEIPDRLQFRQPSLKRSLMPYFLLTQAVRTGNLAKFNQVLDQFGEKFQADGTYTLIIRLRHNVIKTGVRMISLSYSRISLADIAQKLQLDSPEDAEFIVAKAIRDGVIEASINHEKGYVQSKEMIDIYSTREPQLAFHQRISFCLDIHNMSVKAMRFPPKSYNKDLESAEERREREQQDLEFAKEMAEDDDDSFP
UniProt O14929: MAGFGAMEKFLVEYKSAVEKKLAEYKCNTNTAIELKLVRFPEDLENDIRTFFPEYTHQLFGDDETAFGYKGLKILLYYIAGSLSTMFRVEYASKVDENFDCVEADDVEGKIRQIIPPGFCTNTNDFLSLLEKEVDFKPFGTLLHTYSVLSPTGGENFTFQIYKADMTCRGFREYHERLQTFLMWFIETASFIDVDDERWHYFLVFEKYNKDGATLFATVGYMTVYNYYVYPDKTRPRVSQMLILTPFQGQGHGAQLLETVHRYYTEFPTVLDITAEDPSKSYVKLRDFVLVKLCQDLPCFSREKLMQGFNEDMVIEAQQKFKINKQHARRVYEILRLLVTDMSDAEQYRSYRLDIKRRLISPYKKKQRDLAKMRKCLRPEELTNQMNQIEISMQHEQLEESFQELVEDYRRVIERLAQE
UniProt O14965: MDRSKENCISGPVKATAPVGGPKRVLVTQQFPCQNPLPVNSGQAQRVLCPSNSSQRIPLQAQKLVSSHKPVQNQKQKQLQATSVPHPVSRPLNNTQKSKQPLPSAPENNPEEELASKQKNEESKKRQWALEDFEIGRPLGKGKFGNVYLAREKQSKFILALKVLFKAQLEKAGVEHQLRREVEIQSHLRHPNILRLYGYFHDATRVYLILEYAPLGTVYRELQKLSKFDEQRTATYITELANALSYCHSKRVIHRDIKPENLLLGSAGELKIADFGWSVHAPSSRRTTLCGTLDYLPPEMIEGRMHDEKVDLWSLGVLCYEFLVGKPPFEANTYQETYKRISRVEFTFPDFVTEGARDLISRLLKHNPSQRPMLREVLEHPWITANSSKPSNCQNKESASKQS
UniProt O00232: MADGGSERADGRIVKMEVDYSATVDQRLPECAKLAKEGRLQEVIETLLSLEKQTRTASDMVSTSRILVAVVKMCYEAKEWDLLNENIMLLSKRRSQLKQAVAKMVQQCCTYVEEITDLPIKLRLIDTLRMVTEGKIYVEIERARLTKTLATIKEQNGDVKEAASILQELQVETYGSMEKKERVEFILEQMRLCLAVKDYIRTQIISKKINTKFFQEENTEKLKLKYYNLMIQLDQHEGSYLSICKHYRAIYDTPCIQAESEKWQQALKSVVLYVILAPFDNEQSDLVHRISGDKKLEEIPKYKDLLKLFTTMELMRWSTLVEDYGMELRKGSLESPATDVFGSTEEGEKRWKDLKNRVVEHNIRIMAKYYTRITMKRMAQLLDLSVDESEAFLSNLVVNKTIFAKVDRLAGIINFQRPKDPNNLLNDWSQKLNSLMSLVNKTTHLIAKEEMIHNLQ
UniProt O00220, whole entry: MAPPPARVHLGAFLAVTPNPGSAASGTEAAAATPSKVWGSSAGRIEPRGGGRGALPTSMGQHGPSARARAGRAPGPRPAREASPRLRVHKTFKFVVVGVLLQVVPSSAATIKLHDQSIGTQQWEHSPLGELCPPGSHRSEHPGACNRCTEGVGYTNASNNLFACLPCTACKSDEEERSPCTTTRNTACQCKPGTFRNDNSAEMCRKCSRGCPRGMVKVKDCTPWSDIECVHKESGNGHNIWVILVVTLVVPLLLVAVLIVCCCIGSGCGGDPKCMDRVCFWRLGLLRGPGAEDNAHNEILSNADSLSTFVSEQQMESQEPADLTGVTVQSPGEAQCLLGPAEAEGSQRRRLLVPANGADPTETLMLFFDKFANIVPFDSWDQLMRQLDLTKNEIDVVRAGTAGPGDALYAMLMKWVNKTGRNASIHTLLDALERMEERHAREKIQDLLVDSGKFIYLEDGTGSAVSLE
UniProt O14974: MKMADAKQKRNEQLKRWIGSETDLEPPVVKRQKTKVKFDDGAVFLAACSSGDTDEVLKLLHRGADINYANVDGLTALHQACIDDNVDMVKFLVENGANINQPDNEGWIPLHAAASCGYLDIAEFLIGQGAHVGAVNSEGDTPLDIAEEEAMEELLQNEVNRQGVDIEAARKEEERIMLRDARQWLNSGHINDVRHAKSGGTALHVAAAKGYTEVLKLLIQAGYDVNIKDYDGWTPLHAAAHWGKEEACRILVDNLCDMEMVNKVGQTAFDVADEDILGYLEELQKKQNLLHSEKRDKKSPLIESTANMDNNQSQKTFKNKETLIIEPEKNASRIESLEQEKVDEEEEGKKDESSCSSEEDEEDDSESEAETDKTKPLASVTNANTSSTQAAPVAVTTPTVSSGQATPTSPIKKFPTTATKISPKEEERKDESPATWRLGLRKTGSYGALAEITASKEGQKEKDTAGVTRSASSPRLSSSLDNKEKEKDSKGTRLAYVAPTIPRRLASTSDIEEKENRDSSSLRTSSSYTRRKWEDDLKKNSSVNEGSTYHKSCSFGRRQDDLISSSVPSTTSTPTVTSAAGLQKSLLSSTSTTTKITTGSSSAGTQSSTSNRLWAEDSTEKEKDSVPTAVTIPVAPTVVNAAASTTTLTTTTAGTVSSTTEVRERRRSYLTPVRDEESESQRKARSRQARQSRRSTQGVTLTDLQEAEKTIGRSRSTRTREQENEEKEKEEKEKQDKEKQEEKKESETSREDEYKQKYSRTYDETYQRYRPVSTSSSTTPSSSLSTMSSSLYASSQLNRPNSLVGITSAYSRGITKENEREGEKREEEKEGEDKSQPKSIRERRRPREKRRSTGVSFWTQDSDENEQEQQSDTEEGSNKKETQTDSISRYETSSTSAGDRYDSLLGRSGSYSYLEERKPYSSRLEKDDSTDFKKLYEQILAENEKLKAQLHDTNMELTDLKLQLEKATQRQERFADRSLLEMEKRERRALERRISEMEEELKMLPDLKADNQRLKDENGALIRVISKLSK
UniProt O14678: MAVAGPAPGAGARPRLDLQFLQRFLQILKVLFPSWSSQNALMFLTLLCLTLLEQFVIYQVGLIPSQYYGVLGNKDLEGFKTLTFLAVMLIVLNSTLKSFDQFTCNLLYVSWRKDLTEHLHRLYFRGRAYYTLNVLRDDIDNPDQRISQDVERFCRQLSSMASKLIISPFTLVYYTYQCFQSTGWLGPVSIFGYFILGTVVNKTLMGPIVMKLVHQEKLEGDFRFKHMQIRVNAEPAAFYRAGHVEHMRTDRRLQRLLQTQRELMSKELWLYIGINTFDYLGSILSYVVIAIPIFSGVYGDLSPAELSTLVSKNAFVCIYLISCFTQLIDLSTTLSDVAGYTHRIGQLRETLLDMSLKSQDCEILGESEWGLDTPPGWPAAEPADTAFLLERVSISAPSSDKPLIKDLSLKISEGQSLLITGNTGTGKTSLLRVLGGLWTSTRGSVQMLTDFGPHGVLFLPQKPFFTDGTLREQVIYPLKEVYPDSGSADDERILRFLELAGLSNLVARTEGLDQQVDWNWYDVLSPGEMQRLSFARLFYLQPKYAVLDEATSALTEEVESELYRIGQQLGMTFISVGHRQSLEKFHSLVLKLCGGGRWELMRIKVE
UniProt O43310: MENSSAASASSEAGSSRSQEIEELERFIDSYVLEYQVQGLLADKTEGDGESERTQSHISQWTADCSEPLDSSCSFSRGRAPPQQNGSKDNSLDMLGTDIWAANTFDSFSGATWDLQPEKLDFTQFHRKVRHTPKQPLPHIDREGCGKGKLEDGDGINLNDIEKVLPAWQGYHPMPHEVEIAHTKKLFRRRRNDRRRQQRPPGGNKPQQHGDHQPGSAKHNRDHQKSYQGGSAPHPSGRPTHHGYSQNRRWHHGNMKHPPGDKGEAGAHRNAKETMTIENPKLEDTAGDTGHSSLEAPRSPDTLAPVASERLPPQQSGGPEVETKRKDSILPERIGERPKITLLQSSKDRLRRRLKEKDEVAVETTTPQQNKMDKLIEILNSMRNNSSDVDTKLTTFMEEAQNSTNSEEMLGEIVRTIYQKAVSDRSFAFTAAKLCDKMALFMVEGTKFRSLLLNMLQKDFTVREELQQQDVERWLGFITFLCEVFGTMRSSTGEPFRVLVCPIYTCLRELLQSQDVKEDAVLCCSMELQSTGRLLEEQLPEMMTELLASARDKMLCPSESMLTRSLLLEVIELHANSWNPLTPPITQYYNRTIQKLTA
UniProt O00400: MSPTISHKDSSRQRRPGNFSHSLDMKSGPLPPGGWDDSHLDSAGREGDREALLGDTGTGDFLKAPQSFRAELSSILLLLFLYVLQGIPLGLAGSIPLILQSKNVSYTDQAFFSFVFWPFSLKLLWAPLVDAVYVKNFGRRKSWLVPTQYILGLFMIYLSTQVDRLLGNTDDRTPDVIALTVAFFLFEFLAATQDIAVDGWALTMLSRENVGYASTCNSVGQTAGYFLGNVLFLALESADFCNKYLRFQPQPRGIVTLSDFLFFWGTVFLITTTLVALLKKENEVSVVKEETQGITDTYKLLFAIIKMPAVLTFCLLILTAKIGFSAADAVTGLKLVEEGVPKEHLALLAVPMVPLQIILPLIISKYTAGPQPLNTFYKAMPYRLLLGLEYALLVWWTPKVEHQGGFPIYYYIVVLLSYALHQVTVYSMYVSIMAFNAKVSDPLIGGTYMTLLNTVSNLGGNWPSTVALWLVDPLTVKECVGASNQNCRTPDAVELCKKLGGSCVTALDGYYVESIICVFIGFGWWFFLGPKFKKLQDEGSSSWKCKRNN
UniProt O43143: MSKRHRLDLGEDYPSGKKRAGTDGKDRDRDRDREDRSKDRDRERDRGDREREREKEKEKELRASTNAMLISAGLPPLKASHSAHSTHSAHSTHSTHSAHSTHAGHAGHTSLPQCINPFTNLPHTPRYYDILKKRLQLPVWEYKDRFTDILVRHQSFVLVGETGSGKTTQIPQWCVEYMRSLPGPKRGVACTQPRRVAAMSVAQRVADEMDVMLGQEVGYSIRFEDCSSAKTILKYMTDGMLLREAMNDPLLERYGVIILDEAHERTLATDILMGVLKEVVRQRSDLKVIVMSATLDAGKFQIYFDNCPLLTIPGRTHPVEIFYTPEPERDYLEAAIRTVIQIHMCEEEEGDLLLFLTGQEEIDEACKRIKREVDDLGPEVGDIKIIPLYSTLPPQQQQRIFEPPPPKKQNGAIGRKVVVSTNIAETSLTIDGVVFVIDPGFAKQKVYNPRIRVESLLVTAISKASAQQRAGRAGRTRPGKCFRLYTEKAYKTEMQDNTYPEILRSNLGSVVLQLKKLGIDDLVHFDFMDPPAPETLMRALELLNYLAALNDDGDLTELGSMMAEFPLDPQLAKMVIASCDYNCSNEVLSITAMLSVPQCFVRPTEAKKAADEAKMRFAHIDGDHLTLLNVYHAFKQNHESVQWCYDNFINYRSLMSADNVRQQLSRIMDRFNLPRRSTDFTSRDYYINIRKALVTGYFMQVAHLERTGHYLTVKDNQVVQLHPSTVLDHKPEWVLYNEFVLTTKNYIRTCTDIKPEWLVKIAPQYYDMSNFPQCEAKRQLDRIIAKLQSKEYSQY
UniProt O15234, whole entry: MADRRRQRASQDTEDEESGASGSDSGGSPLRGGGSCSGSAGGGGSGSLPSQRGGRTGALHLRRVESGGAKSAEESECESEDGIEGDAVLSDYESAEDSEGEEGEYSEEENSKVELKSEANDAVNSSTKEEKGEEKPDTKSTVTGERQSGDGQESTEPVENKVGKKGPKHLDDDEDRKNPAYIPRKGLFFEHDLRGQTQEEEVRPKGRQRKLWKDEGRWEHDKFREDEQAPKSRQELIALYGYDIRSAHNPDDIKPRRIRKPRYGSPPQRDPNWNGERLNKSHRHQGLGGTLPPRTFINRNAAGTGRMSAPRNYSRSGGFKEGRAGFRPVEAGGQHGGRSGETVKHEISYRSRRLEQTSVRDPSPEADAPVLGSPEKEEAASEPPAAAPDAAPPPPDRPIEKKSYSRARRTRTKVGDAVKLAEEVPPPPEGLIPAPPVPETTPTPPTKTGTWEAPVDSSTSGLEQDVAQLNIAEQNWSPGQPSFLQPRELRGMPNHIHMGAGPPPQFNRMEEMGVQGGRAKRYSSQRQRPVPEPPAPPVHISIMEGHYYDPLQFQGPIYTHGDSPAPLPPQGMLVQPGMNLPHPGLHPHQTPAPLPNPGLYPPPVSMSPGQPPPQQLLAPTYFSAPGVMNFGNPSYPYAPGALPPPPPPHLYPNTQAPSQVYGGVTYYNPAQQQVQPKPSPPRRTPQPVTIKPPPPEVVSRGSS

Target	melting temperature shift (MBE1 concentration: 100 nM)	melting temperature shift (MBE1 concentration: 1 uM)
PSMD3 (UniProt O43242)	-0.812 °C	-0.222 °C
UniProt O15550	0.156 °C	-0.977 °C
HAT1 (UniProt O14929)	1.01 °C	0.183 °C
HMGB3 (UniProt O15347)	-4.88 °C	-5.24 °C
UniProt O14965	-0.709 °C	0.891 °C
PSMD12 (UniProt O00232)	-0.915 °C	0.305 °C
NFIB (UniProt O00712)	-3.4 °C	-3.34 °C
ABCC5 (UniProt O15440)	-0.543 °C	0.318 °C
GIPC1 (UniProt O14908)	-0.922 °C	-0.861 °C
TNFRSF10A (UniProt O00220)	-0.269 °C	2.98 °C
APAF1 (UniProt O14727)	0.118 °C	0.4 °C
UniProt O15211	-1.11 °C	-1.6 °C
CDIPT (UniProt O14735)	-0.413 °C	0.486 °C
HIP1 (UniProt O00291)	0.531 °C	-0.0611 °C
PPP1R12A (UniProt O14974)	-0.055 °C	-0.885 °C
UniProt O00268	-1.15 °C	-0.471 °C
UniProt O14678	-0.577 °C	1.04 °C
CTIF (UniProt O43310)	0.335 °C	-0.516 °C
AIP (UniProt O00170)	0.721 °C	-0.311 °C
UniProt O15021	0.128 °C	0.507 °C
SLC33A1 (UniProt O00400)	-1.71 °C	-0.945 °C
UniProt O14972	0.446 °C	0.226 °C
DHX15 (UniProt O43143)	-0.501 °C	-0.11 °C
FPGT (UniProt O14772)	-0.0268 °C	0.423 °C
CASC3 (UniProt O15234)	-7.13 °C	6.82 °C
EEF1E1 (UniProt O43324)	-0.64 °C	-0.47 °C

Record cards, from the list above. Values in the order: melting temperature shift (MBE1 concentration: 100 nM)	melting temperature shift (MBE1 concentration: 1 uM)
UniProt O15021 is listed as 0.128 °C	0.507 °C
UniProt O15550 is listed as 0.156 °C	-0.977 °C
